Data from paper PMC11984883, “ACAT1‐Mediated ME2 Acetylation Drives Chemoresistance in Ovarian Cancer by Linking Glutaminolysis to Lactate Production” (Advanced Science, 2025).
These are yes or no findings as the source states them, for the method shown. Binding seen in cells or lysates may run through a third protein. Some results given as binding are weak or reduced against the parent protein; the word gives no strength. For part of these data: Tags and fused reporters may be left off the sequences shown. Each block holds one binder with its values, some of them ahead of it.

Amino acid sequences for entries named in this document (tags omitted). Residues count along the entry.
UniProt P23368, residues 19-584: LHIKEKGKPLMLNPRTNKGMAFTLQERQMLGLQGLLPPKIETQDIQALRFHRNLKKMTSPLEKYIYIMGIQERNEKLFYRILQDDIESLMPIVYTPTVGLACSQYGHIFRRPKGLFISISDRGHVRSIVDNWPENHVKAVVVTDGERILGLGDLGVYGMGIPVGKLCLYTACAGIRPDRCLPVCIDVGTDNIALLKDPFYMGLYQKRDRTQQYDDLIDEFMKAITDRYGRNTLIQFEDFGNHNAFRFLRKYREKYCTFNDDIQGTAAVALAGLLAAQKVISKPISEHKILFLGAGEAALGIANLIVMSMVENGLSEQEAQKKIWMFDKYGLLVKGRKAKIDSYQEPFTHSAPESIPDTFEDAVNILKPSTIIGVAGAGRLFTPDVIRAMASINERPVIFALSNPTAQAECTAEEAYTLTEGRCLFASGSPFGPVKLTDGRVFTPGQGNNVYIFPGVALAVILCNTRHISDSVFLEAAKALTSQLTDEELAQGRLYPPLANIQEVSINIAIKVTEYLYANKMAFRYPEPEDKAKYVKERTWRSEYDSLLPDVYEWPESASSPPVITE

Experiments:
[1] = target: malic enzyme 2 (ME2), in cells (UniProt P23368); test: proximity ligation; in situ PLA with antibodies against the indicated proteins, confocal analysis, cancer cells cultured with high or low glucose
[2] = target: malic enzyme 2 (ME2), in cells (UniProt P23368); test: co-IP; immunoprecipitation and western blot from cells cultured in a series of decreasing glucose concentrations (1X: basic medium glucose level), with a series of pyruvate concentrations plus cisplatin (1 µg/ml, 48 h), or with cisplatin for 48 h (Figure S5B)
ME2-Halo = ME2-Halo (UniProt P23368); test: FRET or BRET; BRET in cancer cells co-transfected with ME2-Halo and ACAT1-Nluc or SIRT4-Nluc for 12 h, cultured in a series of decreasing glucose concentrations (Promega N1821)

B2: ACAT1-Nluc (enzyme, UniProt P24752 34-427)
chain: VSKPTLKEVVIVSATRTPIGSFLGSLSLLPATKLGSIAIQGAIEKAGIPKEEVKEAYMGNVLQGGEGQAPTRQAVLGAGLPISTPCTTINKVCASGMKAIMMASQSLMCGHQDVMVAGGMESMSNVPYVMNRGSTPYGGVKLEDLIVKDGLTDVYNKIHMGSCAENTAKKLNIARNEQDAYAINSYTRSKAAWEAGKFGNEVIPVTVTVKGQPDVVVKEDEEYKRVDFSKVPKLKTVFQKENGTVTAANASTLNDGAAALVLMTADAAKRLNVTPLARIVAFADAAVEPIDFPIAPVYAASMVLKDVGLKKEDIAMWEVNEAFSLVVLANIKMLEIDPQKVNINGGAVSLGHPIGMSGARIVGHLTHALKQGEYGLASICNGGGGASAMLIQKL
binding (ME2-Halo): binds

B4: SIRT4-Nluc (enzyme, UniProt Q9Y6E7 29-314)
chain: IGLFVPASPPLDPEKVKELQRFITLSKRLLVMTGAGISTESGIPDYRSEKVGLYARTDRRPIQHGDFVRSAPIRQRYWARNFVGWPQFSSHQPNPAHWALSTWEKLGKLYWLVTQNVDALHTKAGSRRLTELHGCMDRVLCLDCGEQTPRGVLQERFQVLNPTWSAEAHGLAPDGDVFLSEEQVRSFQVPTCVQCGGHLKPDVVFFGDTVNPDKVDFVHKRVKEADSLLVVGSSLQVYSGYRFILTAWEKKLPIAILNIGPTRSDDLACLKLNSRCGELLPLIDPC
binding (ME2-Halo): binds

The next lines start with the values.

binding [1]: binds | binding [2]: binds
B1: acetyl-CoA acetyltransferase 1 (ACAT1), in cells (enzyme, UniProt P24752 34-427)
chain: B2 chain

binding [1]: binds | binding [2]: binds
B3: SIRT4, in cells (enzyme, UniProt Q9Y6E7 29-314)
chain: B4 chain
